Source: US20240262900A1, “MATERIALS AND METHODS FOR DIFFERENTIATING CREB REGULATEDTRANSCRIPTION COACTIVATOR 3” (JANSSEN BIOTECH, INC., priority 2021, published 2024)
For at least one compound, name, drawing or mass did not settle the structure.

What was measured:
[1] = system: phosphorylated CRTC3 in THP1 cells; experiment: Chemically induced CRTC3 dephosphorylation in macrophage-differentiated, LPS-stimulated THP1 cells (immunoblot with phospho-specific mAbs); format: cell-based, human; details: dasatinib 10 micromolar, 1.5 hours, PMA-differentiated, versus untreated
SIKs = details: Ozanne J, et al., The Biochemical journal, 2015; cited from earlier work
CRTC3 = details: Ozanne J, et al., The Biochemical journal, 2015; cited from earlier work

In the case of `Cc1nc(Nc2ncc(C(=O)Nc3c(C)cccc3Cl)s2)cc(N2CCN(CCO)CC2)n1` [dasatinib], the “phosphorylated CRTC3 signal (mAbs #21, #82, #157, #170) in THP1 lysates after treatment” value [1] is listed as “strongly diminished”, the “inhibition of the SIKs” value (SIKs) is listed as “strongly inhibit” and the “dephosphorylation of CRTC3” value (CRTC3) is listed as “induce dephosphorylation of CRTC3”.
